Here are results for 18 compounds from patent publication US20260266848A1, “COMPOSITIONS AND METHODS FOR DIAGNOSING AND TREATING DYSTONIA” (Duke University, priority 2023, published 2026).

Some values come without a unit; they compare only within their column.

The series concerns DYT1 patient plasma. Description: Whole plasma metabolomics (Biocrates MxP Quant 500 Kit), DYT1 vs Healthy Controls. The following applies: for Mean of DYT1-Dystonia: DYT1-Dystonia group; for Mean of Healthy Control: Healthy Control group; for LogFC / Ratio: DYT1-Dystonia vs Healthy Control.
The mark [1] stands for this setting: Mean of Healthy Control minus Mean of DYT1-Dystonia.
[2] abbreviates: human whole plasma metabolite level.
The mark [3] stands for this setting: Healthy Control mean minus DYT1-Dystonia mean.

Turning to `C[C@@H](O)[C@H](N)C(=O)O` [Thr_Aminoacids], the Difference under setting [1] amounted to 32.25. Moreover, under setting [2], the “Mean of DYT1-Dystonia” value stood at 171.3 and the “Mean of Healthy Control” value is on record as 203.6.

`C[n+]1cccc(C(=O)[O-])c1` [Trigonelline_Alkaloids] showed a Difference under setting [3] of −0.08345. Under “human plasma metabolite level”, the “Mean of DYT1-Dystonia” value is on record as 5.24 and the “Mean of Healthy Control” value is recorded as 5.157.

For `C[N+](C)(C)[C@@H](Cc1c[nH]c2ccccc12)C(=O)[O-]` [TrpBetaine_Aminoacids Related], the Difference under setting [1] is listed as −0.1464. For the same compound, under setting [2], the “Mean of DYT1-Dystonia” value amounted to 0.4805 and the “Mean of Healthy Control” value is recorded as 0.3341.

Consider `N[C@@H](Cc1c[nH]c2ccccc12)C(=O)O` [Trp_Aminoacids], for which, under setting [1], the Difference is on record as −4.164. Also, under setting [2], the “Mean of DYT1-Dystonia” value came to 78.72 and the “Mean of Healthy Control” value is listed as 74.56.

`N[C@@H](Cc1ccc(O)cc1)C(=O)O` [Tyr_Aminoacids] showed a LogFC of −0.2679. Under setting [1], this compound gave a Difference of 17.03. Also, under setting [2], the “Mean of DYT1-Dystonia” value was determined as 83.3 and the “Mean of Healthy Control” value was 100.3.

Consider `CC(C)[C@H](N)C(=O)O` [Val_Aminoacids], for which the Difference under setting [1] turned out to be 17.51. For the same compound, under setting [2], the “Mean of DYT1-Dystonia” value stood at 306.3 and the “Mean of Healthy Control” value turned out to be 323.8.

Take `O=c1[nH]c(=O)c2nc[nH]c2[nH]1` [Xanthine_Nucleobases Related]: the Difference under setting [1] is listed as −0.2421. Under setting [2], the “Mean of DYT1-Dystonia” value is 1.745 and the “Mean of Healthy Control” value is 1.503.

The compound `NC(CCCC(=O)O)C(=O)O` (stereo not drawn) [alpha-AAA_Aminoacids Related] returned a Difference under setting [1] of 0.5321. Further, under setting [2], the “Mean of DYT1-Dystonia” value is 1.201 and the “Mean of Healthy Control” value was found to be 1.734.

Under setting [1], `NCCC(=O)O` [beta-Ala_Biogenic Amines] gave a Difference of 4.684. Further, under setting [2], the “Mean of DYT1-Dystonia” value is listed as 5.569 and the “Mean of Healthy Control” value is recorded as 10.25.

In turn, `CCCCCCCCCCCCCC(=O)OC[C@@H](O)COP(=O)([O-])OCC[N+](C)(C)C` [lysoPC a C14:0_Glycerophospholipids] had a Difference under setting [1] of −0.18. Under setting [2], the “Mean of DYT1-Dystonia” value came out at 2.571 and the “Mean of Healthy Control” value was 2.391.

Regarding `CCCCCCCCCCCCCCCC(=O)OC[C@@H](O)COP(=O)([O-])OCC[N+](C)(C)C` [lysoPC a C16:0_Glycerophospholipids], the Difference under setting [1] is −6.572. Besides, under setting [2], the “Mean of DYT1-Dystonia” value stood at 136.1 and the “Mean of Healthy Control” value was 129.6.

`CCCCCCCCCCCCCCCCC(=O)OC[C@@H](O)COP(=O)([O-])OCC[N+](C)(C)C` [lysoPC a C17:0_Glycerophospholipids] returned a Difference under setting [3] of 0.08. Under “human plasma metabolite level”, the “Mean of DYT1-Dystonia” value is reported as 2.98 and the “Mean of Healthy Control” value is 2.9.

The compound `CCCCCCCCCCCCCCCCCC(=O)OC[C@@H](O)COP(=O)([O-])OCC[N+](C)(C)C` [lysoPC a C18:0_Glycerophospholipids] showed a Difference under setting [3] of −0.4983. Further, where the note is “human plasma metabolite level”, the “Mean of DYT1-Dystonia” value is 43.45 and the “Mean of Healthy Control” value was 42.96.

In the case of `CCCCCCCCCCCCCCCCCCCCCCCC(=O)OC[C@@H](O)COP(=O)([O-])OCC[N+](C)(C)C` [lysoPC a C24:0_Glycerophospholipids], under setting [1], the Difference is listed as 0.04883. In addition, under setting [2], the “Mean of DYT1-Dystonia” value is given as 0.5465 and the “Mean of Healthy Control” value amounted to 0.5954.

On to `CCCCCCCCCCCCCCCCCCCCCCCCCC(=O)OC[C@@H](O)COP(=O)([O-])OCC[N+](C)(C)C` [lysoPC a C26:0_Glycerophospholipids], for which the LogFC is reported as −0.2141 and the Ratio was 0.8621. This compound also showed a Difference under setting [1] of 0.1174. Under setting [2], the “Mean of DYT1-Dystonia” value was 0.734 and the “Mean of Healthy Control” value amounted to 0.8514.

`CCCCCCCCCCCCCCCCCCCCCCCCCCCC(=O)OC[C@@H](O)COP(=O)([O-])OCC[N+](C)(C)C` [lysoPC a C28:0_Glycerophospholipids]: the LogFC is 0.1616 and the Ratio was 0.894. Besides, the Difference under setting [1] is reported as 0.1196. Also, under setting [2], the “Mean of DYT1-Dystonia” value stood at 1.004 and the “Mean of Healthy Control” value stood at 1.123.

Turning to `Cc1ccc(OS(=O)(=O)O)cc1` [p-Cresol-SO4_Cresols], the LogFC is −0.7686 and the Ratio is 0.587. In addition, the Difference under setting [1] was determined as 5.042. Besides, under setting [2], the “Mean of DYT1-Dystonia” value was determined as 7.167 and the “Mean of Healthy Control” value is reported as 12.21.

The compound `O=C(O)[C@@H]1C[C@@H](O)CN1` [t4-OH-Pro_Aminoacids Related] came in with a Difference under setting [1] of 5.369. Further, under setting [2], the “Mean of DYT1-Dystonia” value was found to be 19.52 and the “Mean of Healthy Control” value worked out at 24.88.
